Some of these results come from one statement about several compounds together. For at least one compound, name, drawing or mass did not settle the structure.
Tests used:
Assay type in all cases: in vivo
[1] = tested on: Spodoptera frugiperda; assay: Example R: Spodoptera frugiperda Test (spray treatment); conditions: application rate of 500 g/ha
[2] = tested on: Myzus persicae; assay: Example Q: Myzus Test (spray treatment); conditions: application rate of 500 g/ha
[3] = tested on: Phaedon cochleariae; assay: Example N: Phaedon Test (spray treatment); conditions: application rate of 100 g/ha
Protocol: [table] To produce a suitable preparation of active compound, 1 part by weight of active compound is mixed with the stated amounts of solvents and emulsifier, and the concentrate is diluted with emulsifier-containing water to the desired concentration. Discs of Chinese cabbage (Brassica pekinensis) are sprayed with a preparation of active compound of the desired concentration and, after drying, populated with larvae of the mustard beetle (Phaedon cochleariae).

[4] = tested on: Tetranychus urticae; assay: Example O: Tetranychus Test (OP resistant/spray treatment); conditions: application rate of 100 g/ha
[5] = tested on: Lolium multiflorum; assay: Example V 2: Herbicidal Post-Emergence Action; conditions: post-emergence method at 320 g of a.i./ha
Protocol: (§1) Seeds of monocotyledonous and dicotyledonous weed and crop plants are placed into sandy loam in wood fibre pots, covered with soil and cultivated in a greenhouse under good growth conditions. 2-3 weeks after sowing, the test plants are treated at the one-leaf stage. The test compounds, formulated as wettable powders (WP), are then, in various dosages with a water application rate of 600 l/ha (converted), with 0.2% of wetting agent added, sprayed onto the green parts of the plants. After the test plants have been kept in the greenhouse under optimum growth conditions for about 3 weeks, the effect of the preparations is rated visually in comparison to untreated controls (herbicidal effect in percent (%): 100% effect=the plants have died, 0% effect=like control plants).

[6] = tested on: Setaria viridis; assay: Example V 2: Herbicidal Post-Emergence Action; conditions: post-emergence method at 320 g of a.i./ha
Protocol: as §1

[7] = tested on: Echinocloa crus-galli; assay: Example V 2: Herbicidal Post-Emergence Action; conditions: post-emergence method at 320 g of a.i./ha
Protocol: as §1

SMILES | activity in % [1] [%] | activity in % [2] [%] | activity in % [3] [%] | activity in % [4] [%] | activity (herbicidal effect in percent) [5] [%] | activity (herbicidal effect in percent) [6] [%] | activity (herbicidal effect in percent) [7] [%]
Cc1ccc(-c2ccc(Cl)cc2)cc1C1=C(O)C2(CCC3(CC2)OCC(C)O3)NC1=O (mixture of isomers) [Ex. I-1-a-52] | ≥ 80 | ≥ 90 | – | – | – | – | –
Cc1ccc(-c2ccc(Cl)cc2)cc1C1=C(O)C2(CCC3(CC2)OC(C)C(C)O3)NC1=O (mixture of isomers) [Ex. I-1-a-54] | ≥ 80 | ≥ 90 | – | – | – | – | –
O=C1NC2(CCC3(CC2)OCCCO3)C(O)=C1c1cc(-c2ccc(Cl)cc2)ccc1Cl [Ex. I-1-a-15] | – | – | ≥ 80 | ≥ 80 | – | – | –
Cc1ccc(-c2ccc(Cl)cc2)cc1C1=C(O)C2(CCC3(CC2)OCCCO3)NC1=O [Ex. I-1-a-16] | ≥ 80 | ≥ 90 | – | ≥ 80 | – | – | –
Cc1ccc(-c2ccc(Cl)cc2)cc1C1=C(O)C2(CCC3(CC2)OCCO3)NC1=O [Ex. I-1-a-27] | ≥ 80 | – | – | ≥ 80 | ≥ 80 | ≥ 80 | ≥ 80
O=C1NC2(CCC3(CC2)OCCO3)C(O)=C1c1cc(-c2ccc(Cl)cc2)ccc1Cl [Ex. I-1-a-49] | ≥ 80 | ≥ 90 | – | – | – | – | –

Reference: patent publication US7897543B2, “Spiroketal-substituted cyclic ketoenols” (Bayer CropScience AG, priority 2005, dated 2011)
